# From publication PMC3842841, “VacA, the vacuolating cytotoxin of Helicobacter pylori, binds to multimerin 1 on human platelets” (Thrombosis Journal, 2013)
# Chains of the proteins cited; added tags and fusions are not shown. Lines headed by an entry give the natural chain unless they say otherwise; changes in a name come on top.
# UniProt Q48245: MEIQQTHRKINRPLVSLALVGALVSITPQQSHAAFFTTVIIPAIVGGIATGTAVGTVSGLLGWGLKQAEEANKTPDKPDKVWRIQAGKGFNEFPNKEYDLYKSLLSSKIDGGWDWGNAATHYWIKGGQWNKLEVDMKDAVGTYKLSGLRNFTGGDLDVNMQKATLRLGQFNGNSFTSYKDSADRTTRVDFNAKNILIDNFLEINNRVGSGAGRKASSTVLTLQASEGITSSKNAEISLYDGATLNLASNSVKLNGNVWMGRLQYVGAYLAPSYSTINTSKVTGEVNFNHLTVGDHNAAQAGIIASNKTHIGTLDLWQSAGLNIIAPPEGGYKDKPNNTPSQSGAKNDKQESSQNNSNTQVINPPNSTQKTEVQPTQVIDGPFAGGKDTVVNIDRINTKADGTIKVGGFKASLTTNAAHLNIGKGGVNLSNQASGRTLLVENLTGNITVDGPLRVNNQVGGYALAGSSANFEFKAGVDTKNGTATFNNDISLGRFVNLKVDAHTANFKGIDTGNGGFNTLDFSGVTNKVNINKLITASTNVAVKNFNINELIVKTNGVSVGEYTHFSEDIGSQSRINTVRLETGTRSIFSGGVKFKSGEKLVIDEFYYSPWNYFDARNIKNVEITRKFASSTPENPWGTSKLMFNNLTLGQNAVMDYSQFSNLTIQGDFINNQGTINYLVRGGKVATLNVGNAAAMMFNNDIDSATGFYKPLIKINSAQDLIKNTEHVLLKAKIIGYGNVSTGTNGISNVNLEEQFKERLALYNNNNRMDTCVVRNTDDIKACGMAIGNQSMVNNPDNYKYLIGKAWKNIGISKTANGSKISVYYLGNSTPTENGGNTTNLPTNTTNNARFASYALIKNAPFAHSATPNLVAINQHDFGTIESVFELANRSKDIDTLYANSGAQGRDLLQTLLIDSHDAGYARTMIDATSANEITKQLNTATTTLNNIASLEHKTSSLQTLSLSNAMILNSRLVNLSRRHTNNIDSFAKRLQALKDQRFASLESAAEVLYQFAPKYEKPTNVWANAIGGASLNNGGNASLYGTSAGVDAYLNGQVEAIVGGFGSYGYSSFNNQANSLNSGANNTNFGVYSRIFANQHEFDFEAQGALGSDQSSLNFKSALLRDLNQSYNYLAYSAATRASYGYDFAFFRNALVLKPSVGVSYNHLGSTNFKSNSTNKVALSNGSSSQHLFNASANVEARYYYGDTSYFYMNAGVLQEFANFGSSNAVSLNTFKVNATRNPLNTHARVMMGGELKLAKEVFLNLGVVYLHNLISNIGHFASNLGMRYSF
# How the values were obtained:
# [1] = target: T1, synthetic peptide 3 of MMRN1 (321-340) (human); test: far-Western, overlay or dot blot; peptides (2.5 μL, 5 mM) spotted on PVDF membrane, blocked with 1% BSA; 10 ng/mL VacA, 1 h at room temperature; detected with anti-VacA polyclonal antibody; both purified
# T1 sequence (peptide): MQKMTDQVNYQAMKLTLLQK
# [2] = target: T2, Glutathione S-transferase (GST)-fusion protein of multimerin 1 (291a.a. ~ 391a.a.) (human) (UniProt Q13201); test: pull-down; GST-MMRN1 (291-391) with VacA; no details given; both purified
# T2 sequence: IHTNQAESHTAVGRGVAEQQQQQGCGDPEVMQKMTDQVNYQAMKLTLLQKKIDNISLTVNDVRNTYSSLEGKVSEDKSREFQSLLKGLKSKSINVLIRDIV
substance,measurement,setting,value
"VacA, the vacuolating cytotoxin of Helicobacter pylori (from UniProt Q48245)",binding,[1],binds
same,binding,[2],binds

# These are yes or no findings as the source states them, for the method shown. Binding calls can cover weak binding; strength is not graded here. For some assays here: Tags and fused reporters may be left off the sequences shown.
